Experimental data from PubChem BioAssay AID256 (DTP/NCI, 2004).
The list shows only some results of the screen, not a fair sample: it gathers tests that were run many times, whatever their T/C, doses with no T/C, and many T/C values between a quarter and a half above the control. Further doses and runs are listed elsewhere. T/C is the treated group as % of the vehicle group. Some doses have a count of surviving animals in place of a T/C: the source holds a T/C of zero for them, seemingly a mark for toxic or unscored doses. Some doses without a T/C left all or most animals alive at the check, yet need not have been tolerated: the source hardly ever lists a survival T/C far under the control, and the zero likely stands for such cases as well. Survivors were counted at the toxicity check, usually on the fifth day, unless a day is given; later deaths do not show. Schedule codes are those of the source, read here as Q, the interval in days (D) or hours (H), X, the number of doses. Some entries hold several experiments; their values stand side by side, smallest first. For survival time, the PubChem record calls one and a half times the control and up active, and a quarter to a half above the control has no call in these data; cut-offs in other NCI protocols can differ. Additions like (4×) give the number of equal values in this list. Some T/C values are followed by the survivors on the day toxicity was checked, most often the fifth; where none is given, no animal had died by that day.

Test system: CD2F1 mice, L1210 leukemia ip, survival T/C
Assay: NCI In Vivo Anticancer Drug Screen. Data for tumor model L1210 Leukemia (intraperitoneal) in CD2F1 (CDF1) mice
Settings: higher T/C = longer survival
Method: The antitumor activity of compounds was measured in mice bearing transplantable tumors. Survival or tumor size were measured and the results are expressed as the measurement made in the treated group (T) divided by the measurement made in the vehicle treated control group (C). The tumor model used in this assay is L1210 Leukemia (intraperitoneal) in CD2F1 (CDF1) mice

[1] = T/C endpoint: mean survival time, dose: 400.0 mg/kg/injection, schedule: Q01DX009 (ip), vehicle: saline with Tween-80
[2] = T/C endpoint: mean survival time, dose: 400.0 mg/kg/injection, schedule: Q04DX003 (ip), vehicle: saline with Tween-80
[3] = T/C endpoint: mean survival time, dose: 100.0 mg/kg/injection, schedule: Q01DX009 (ip), vehicle: saline with Tween-80
[4] = T/C endpoint: mean survival time, dose: 400.0 mg/kg/injection, schedule: Q04DX002 (ip), vehicle: saline with Tween-80
[5] = T/C endpoint: mean survival time, dose: 20.0 mg/kg/injection, schedule: Q01DX001 (ip), vehicle: saline
[6] = T/C endpoint: mean survival time, dose: 40.0 mg/kg/injection, schedule: Q01DX001 (ip), vehicle: saline
[7] = T/C endpoint: mean survival time, dose: 80.0 mg/kg/injection, schedule: Q01DX001 (ip), vehicle: saline
[8] = T/C endpoint: mean survival time, dose: 100.0 mg/kg/injection, schedule: Q04DX002 (ip), vehicle: saline with Tween-80
[9] = T/C endpoint: mean survival time, dose: 400.0 mg/kg/injection, schedule: Q04DX003 (ip), vehicle: saline
[10] = T/C endpoint: mean survival time, dose: 200.0 mg/kg/injection, schedule: Q01DX009 (ip), vehicle: saline with Tween-80

For `c1ccc2c(c1)Cc1c-2nc2ccccc2c1N1CCOCC1`, the T/C [1] was 139 % of control.

In the case of `O=C(OC(CN1CCCCC1)CN1CCCc2ccccc21)C(O)C(O)C(O)(CO)C(=O)OC(CN1CCCCC1)CN1CCCc2ccccc21` (stereo not drawn), the survivor count [2] was 0 of 6.

`CCOC(CSCC#N)OCC` was tested, and the survivor count (T/C endpoint: mean survival time, dose: 100.0 mg/kg/injection, schedule: Q04DX003 (ip), vehicle: saline with Tween-80) was 3 of 6, the survivor count (T/C endpoint: mean survival time, dose: 200.0 mg/kg/injection, schedule: Q04DX003 (ip), vehicle: saline with Tween-80) was 0 of 6 and the survivor count [2] was 0 of 6.

For `C(#[C][Ge]([C]#Cc1ccccc1)([C]#Cc1ccccc1)[C]#Cc1ccccc1)c1ccccc1`, the survivor count [3] was 6 of 6 and the survivor count [1] was 5 of 6.

`NCCN1c2ccccc2Sc2ccccc21` was tested, and the survivor count (T/C endpoint: mean survival time, dose: 100.0 mg/kg/injection, schedule: Q01DX009 (ip), vehicle: other) was 0 of 6 and the survivor count (T/C endpoint: mean survival time, dose: 200.0 mg/kg/injection, schedule: Q01DX009 (ip), vehicle: other) was 0 of 6.

With `Nc1nc(N)c2nc3c(nc2n1)C(=O)N(c1ccc(C(=O)O)cc1)C3` the survivor count (T/C endpoint: mean survival time, dose: 50.0 mg/kg/injection, schedule: Q01DX001 (ip), vehicle: saline) was 0 of 3, the survivor count (T/C endpoint: mean survival time, dose: 100.0 mg/kg/injection, schedule: Q01DX001 (ip), vehicle: saline) was 0 of 3 and the survivor count (T/C endpoint: mean survival time, dose: 200.0 mg/kg/injection, schedule: Q01DX001 (ip), vehicle: saline) was 0 of 3.

`CCCCOc1ccc(Cl)cc1` was tested, and the survivor count [4] was 1 of 3.

In the case of `O=[N+]([O-])c1ccc(N2CCOCC2)c2c1no[n+]2[O-]`, the survivor count (T/C endpoint: median survival time, dose: 200.0 mg/kg/injection, schedule: Q01DX009 (ip), vehicle: saline with Tween-80) was 4 of 6.

With `c1cncc(-c2nnc(-c3cccnc3)o2)c1` the survivor count (T/C endpoint: mean survival time, dose: 50.0 mg/kg/injection, schedule: Q04DX002 (ip), vehicle: saline with Tween-80) was 1 of 3 and the survivor count [4] was 0 of 3.

`O=S(=O)(F)c1ccc(O)cc1` was tested, and the survivor count (T/C endpoint: mean survival time, dose: 200.0 mg/kg/injection, schedule: Q01DX001 (ip), vehicle: saline with Tween-80) was 3 of 6, the survivor count (T/C endpoint: mean survival time, dose: 200.0 mg/kg/injection, schedule: Q04DX002 (ip), vehicle: saline with Tween-80) was 1 of 3 and 3 of 6 and the survivor count [4] was 0 of 3 and 0 of 6.

For `Cc1nc2ccccc2nc1CBr`, the survivor count (T/C endpoint: mean survival time, dose: 25.0 mg/kg/injection, schedule: Q01DX009 (ip), vehicle: acetone) was 4 of 6 and the survivor count (T/C endpoint: mean survival time, dose: 50.0 mg/kg/injection, schedule: Q01DX009 (ip), vehicle: acetone) was 3 of 6.

With `COC1=C2C[C@@H](C)C[C@@H](OC)[C@@H](O)[C@H](C)/C=C(\C)[C@@H](OC(N)=O)[C@H](OC)/C=C\C=C(/C)C(=O)NC(=CC1=O)C2=O` the survivor count [5] was 1 of 6, the survivor count [6] was 0 of 6 and the survivor count [7] was 0 of 6.

In the case of `COc1cc(N(CCCl)CCCl)c(OC)cc1/C=N\Nc1nnc(C)n1N`, the T/C (T/C endpoint: mean survival time, dose: 11.0 mg/kg/injection, schedule: Q01DX015 (ip), vehicle: saline) was 127 % of control, the T/C (T/C endpoint: mean survival time, dose: 18.0 mg/kg/injection, schedule: Q01DX015 (ip), vehicle: saline) was 125 % of control and the T/C (T/C endpoint: mean survival time, dose: 30.0 mg/kg/injection, schedule: Q01DX015 (ip), vehicle: saline) was 138 % of control [5 of 6 alive]. For the same compound, the survivor count (T/C endpoint: mean survival time, dose: 50.0 mg/kg/injection, schedule: Q01DX015 (ip), vehicle: saline) was 5 of 6.

`O=C(O)c1cccs1` was tested, and the survivor count (T/C endpoint: mean survival time, dose: 400.0 mg/kg/injection, schedule: Q04DX003 (ip), vehicle: other) was 3 of 6.

In the case of `CCC1(O)C(=O)OCc2c1cc1n(c2=O)Cc2cc3ccc(O)cc3nc2-1` (stereo not drawn), the T/C (T/C endpoint: median survival time, dose: 7.5 mg/kg/injection, schedule: Q04DX002 (ip), vehicle: Klucel (hydroxypropylcellulose) (HPC)) was 142 % of control, the T/C (T/C endpoint: median survival time, dose: 15.0 mg/kg/injection, schedule: Q04DX002 (ip), vehicle: Klucel (hydroxypropylcellulose) (HPC)) was 131 % of control and the T/C (T/C endpoint: median survival time, dose: 30.0 mg/kg/injection, schedule: Q04DX002 (ip), vehicle: Klucel (hydroxypropylcellulose) (HPC)) was 141 % of control. The T/C (T/C endpoint: median survival time, dose: 120.0 mg/kg/injection, schedule: Q04DX002 (ip), vehicle: Klucel (hydroxypropylcellulose) (HPC)) was 149 % of control.

In the case of `COc1ccc(/C(C)=N\NC(=O)c2ccccc2)cc1`, the survivor count [2] was 5 of 6.

In the case of `COc1cc(C2c3cc4c(cc3[C@@H](OC3OC5CO[C@@H](C)OC5C(O)C3O)[C@H]3COC(=O)C23)OCO4)cc(OC)c1OC` (stereo partly drawn), the T/C (T/C endpoint: median survival time, dose: 12.5 mg/kg/injection, schedule: Q01DX005 (ip), vehicle: saline) was 131 % of control, the T/C (T/C endpoint: median survival time, dose: 25.0 mg/kg/injection, schedule: Q01DX005 (ip), vehicle: saline) was 133 % of control and the T/C (T/C endpoint: median survival time, dose: 36.0 mg/kg/injection, schedule: Q01DX009 (ip), vehicle: saline) was 146 % of control.

For `CCCCC(CC)COc1ccc(N=C(N)N=C(N)N)cc1` (stereo not drawn), the survivor count [8] was 0 of 3.

`COC1CCC(/C=C(\C#N)C2CCC([N+](=O)[O-])CC2)CC1Br` (stereo not drawn) was tested, and the survivor count [8] was 0 of 3.

With `C=C1C(=O)OC2/C=C(\C)CC/C=C(/C=O)C(OC(=O)C(C)C)C(O)C12` (stereo not drawn) the survivor count (T/C endpoint: mean survival time, dose: 16.0 mg/kg/injection, schedule: Q01DX009 (ip), vehicle: saline with Tween-80) was 1 of 6.

With `CS(=O)(=O)SC(F)(F)F` the survivor count (T/C endpoint: mean survival time, dose: 10.0 mg/kg/injection, schedule: Q01DX001 (ip), vehicle: saline) was 2 of 6, the survivor count [5] was 0 of 6 and the survivor count [6] was 0 of 6. For the same compound, the survivor count [7] was 0 of 6.

`CC(=O)OCC1OC(n2cnc3c(=S)nc(N)[nH]c32)CC1OC(C)=O` (stereo not drawn) was tested, and the T/C (T/C endpoint: mean survival time, dose: 2.5 mg/kg/injection, schedule: Q01DX005 (ip), vehicle: saline with Tween-80) was 125 % of control, the T/C (T/C endpoint: mean survival time, dose: 5.0 mg/kg/injection, schedule: Q01DX005 (ip), vehicle: saline with Tween-80) was 137 % of control and the T/C (T/C endpoint: mean survival time, dose: 10.0 mg/kg/injection, schedule: Q01DX005 (ip), vehicle: saline with Tween-80) was 137 % of control. For the same compound, the survivor count (T/C endpoint: mean survival time, dose: 40.0 mg/kg/injection, schedule: Q01DX005 (ip), vehicle: saline with Tween-80) was 7 of 7.

For `Cc1cc(Br)c[nH]c1=O`, the survivor count [1] was 3 of 6.

In the case of `CC(C)c1cc2ccccc2s1`, the survivor count (T/C endpoint: mean survival time, dose: 400.0 mg/kg/injection, schedule: Q01DX001 (ip), vehicle: saline) was 2 of 6.

With `OCCOCCN1CCN(CC/C=C2\c3ccccc3Sc3ccc(C(F)(F)F)cc32)CC1` the survivor count (T/C endpoint: mean survival time, dose: 6.25 mg/kg/injection, schedule: Q01DX009 (ip), vehicle: saline sonified) was 5 of 6, the survivor count (T/C endpoint: mean survival time, dose: 12.5 mg/kg/injection, schedule: Q01DX009 (ip), vehicle: saline sonified) was 4 of 6 and the T/C (T/C endpoint: mean survival time, dose: 12.5 mg/kg/injection, schedule: Q04DX003 (ip), vehicle: saline, evaluated on day 20) was 125 % of control. For the same compound, the T/C (T/C endpoint: mean survival time, dose: 12.5 mg/kg/injection, schedule: Q04DX003 (ip), vehicle: saline, evaluated on day 30) was 138 % of control, the T/C (T/C endpoint: mean survival time, dose: 18.0 mg/kg/injection, schedule: Q04DX003 (ip), vehicle: saline with Tween-80) was 133 % of control and the survivor count (T/C endpoint: mean survival time, dose: 25.0 mg/kg/injection, schedule: Q01DX009 (ip), vehicle: saline sonified) was 0 of 6. The T/C (T/C endpoint: mean survival time, dose: 25.0 mg/kg/injection, schedule: Q04DX003 (ip), vehicle: saline) was 130 and 132 % of control, the T/C (T/C endpoint: mean survival time, dose: 50.0 mg/kg/injection, schedule: Q04DX003 (ip), vehicle: saline) was 128 % of control and the survivor count (T/C endpoint: mean survival time, dose: 100.0 mg/kg/injection, schedule: Q04DX003 (ip), vehicle: saline) was 0 of 6. The survivor count (T/C endpoint: mean survival time, dose: 200.0 mg/kg/injection, schedule: Q04DX003 (ip), vehicle: saline) was 0 of 6 and the survivor count [9] was 0 of 6.

For `O=C(Nc1cc(Cl)c(Cl)cc1Cl)Nc1cc(Cl)ccc1Oc1ccc(Cl)cc1S(=O)(=O)O`, the survivor count (T/C endpoint: mean survival time, dose: 400.0 mg/kg/injection, schedule: Q01DX001 (ip), vehicle: saline with Tween-80) was 2 of 6.

With `CCCCCCCCCC(=O)NC(=S)Nc1ccc(Cl)cc1` the T/C [3] was 91, 95, 98 % of control (2×), the T/C [10] was 93 % of control [4 of 6 alive] and the survivor count [10] was 0 of 3, 1 of 3, 5 of 6. The survivor count [1] was 0 of 3 and 0 of 6.

For `CC(N)C(=O)c1ccccc1` (stereo not drawn), the survivor count [9] was 0 of 6.

For `O=P(N1CCOCC1)(N1CC1)N1CC1`, the T/C (T/C endpoint: mean survival time, dose: 6.25 mg/kg/injection, schedule: Q01DX009 (ip), vehicle: saline) was 132 % of control.
